Results reported in ChEMBL document CHEMBL4316593 (Eur J Med Chem, 2019).
The source gives many values for each of these; only a part stands here.

Key:
Format in all cases: cell-based
Settings in all cases: U-87MG ATCC
[1] = Inhibition of RTK/PI3K/AKT/mTOR signaling in human U87 cells assessed as down regulation of SERPINB8 gene expression at cytotoxic IC50 measured after 48 hrs relative to control
[2] = Inhibition of RTK/PI3K/AKT/mTOR signaling in human U87 cells assessed as down regulation of ZSWIM5 gene expression at cytotoxic IC50 measured after 48 hrs relative to control
[3] = Inhibition of RTK/PI3K/AKT/mTOR signaling in human U87 cells assessed as down regulation of MID2 gene expression at cytotoxic IC50 measured after 48 hrs relative to control
[4] = Inhibition of RTK/PI3K/AKT/mTOR signaling in human U87 cells assessed as down regulation of GDAP2 gene expression at cytotoxic IC50 measured after 48 hrs relative to control
[5] = Inhibition of RTK/PI3K/AKT/mTOR signaling in human U87 cells assessed as down regulation of HSPD1 gene expression at cytotoxic IC50 measured after 48 hrs relative to control
[6] = Inhibition of RTK/PI3K/AKT/mTOR signaling in human U87 cells assessed as down regulation of PLAA gene expression at cytotoxic IC50 measured after 48 hrs relative to control
[7] = Inhibition of RTK/PI3K/AKT/mTOR signaling in human U87 cells assessed as down regulation of SNX30 gene expression at cytotoxic IC50 measured after 48 hrs relative to control
[8] = Inhibition of RTK/PI3K/AKT/mTOR signaling in human U87 cells assessed as down regulation of USP20 gene expression at cytotoxic IC50 measured after 48 hrs relative to control
[9] = Inhibition of RTK/PI3K/AKT/mTOR signaling in human U87 cells assessed as down regulation of NASP gene expression at cytotoxic IC50 measured after 48 hrs relative to control
[10] = Inhibition of RTK/PI3K/AKT/mTOR signaling in human U87 cells assessed as down regulation of RNF19B gene expression at cytotoxic IC50 measured after 48 hrs relative to control
[11] = Inhibition of RTK/PI3K/AKT/mTOR signaling in human U87 cells assessed as down regulation of NEK9 gene expression at cytotoxic IC50 measured after 48 hrs relative to control
[12] = Inhibition of RTK/PI3K/AKT/mTOR signaling in human U87 cells assessed as down regulation of GLB1 gene expression at cytotoxic IC50 measured after 48 hrs relative to control
[13] = Inhibition of RTK/PI3K/AKT/mTOR signaling in human U87 cells assessed as down regulation of OAT gene expression at cytotoxic IC50 measured after 48 hrs relative to control
[14] = Inhibition of RTK/PI3K/AKT/mTOR signaling in human U87 cells assessed as down regulation of EREG gene expression at cytotoxic IC50 measured after 48 hrs relative to control
[15] = Inhibition of RTK/PI3K/AKT/mTOR signaling in human U87 cells assessed as down regulation of TPM3 gene expression at cytotoxic IC50 measured after 48 hrs relative to control
[16] = Inhibition of RTK/PI3K/AKT/mTOR signaling in human U87 cells assessed as down regulation of PHC2 gene expression at cytotoxic IC50 measured after 48 hrs relative to control
[17] = Inhibition of RTK/PI3K/AKT/mTOR signaling in human U87 cells assessed as up regulation of FAM83H-AS1 gene expression at cytotoxic IC50 measured after 48 hrs relative to control
[18] = Inhibition of RTK/PI3K/AKT/mTOR signaling in human U87 cells assessed as up regulation of hook microtubule tethering protein 2 gene expression at cytotoxic IC50 measured after 48 hrs relative to control
[19] = Inhibition of RTK/PI3K/AKT/mTOR signaling in human U87 cells assessed as up regulation of TEA domain transcription factor 2 gene expression at cytotoxic IC50 measured after 48 hrs relative to control
[20] = Inhibition of RTK/PI3K/AKT/mTOR signaling in human U87 cells assessed as up regulation of damage specific DNA binding protein 2 gene expression at cytotoxic IC50 measured after 48 hrs relative to control
[21] = Inhibition of RTK/PI3K/AKT/mTOR signaling in human U87 cells assessed as up regulation of Ras association domain family member 7 gene expression at cytotoxic IC50 measured after 48 hrs relative to control
[22] = Inhibition of RTK/PI3K/AKT/mTOR signaling in human U87 cells assessed as up regulation of protein phosphatase 1 regulatory subunit 10 gene expression at cytotoxic IC50 measured after 48 hrs relative to control
[23] = Inhibition of RTK/PI3K/AKT/mTOR signaling in human U87 cells assessed as up regulation of inositol polyphosphate-5-phosphatase J gene expression at cytotoxic IC50 measured after 48 hrs relative to control
[24] = Inhibition of RTK/PI3K/AKT/mTOR signaling in human U87 cells assessed as up regulation of paroxysmal nonkinesigenic dyskinesia gene expression at cytotoxic IC50 measured after 48 hrs relative to control
[25] = Inhibition of RTK/PI3K/AKT/mTOR signaling in human U87 cells assessed as up regulation of small integral membrane protein 3 gene expression at cytotoxic IC50 measured after 48 hrs relative to control
[26] = Inhibition of RTK/PI3K/AKT/mTOR signaling in human U87 cells assessed as up regulation of translocation associated membrane protein 1 gene expression at cytotoxic IC50 measured after 48 hrs relative to control
[27] = Inhibition of RTK/PI3K/AKT/mTOR signaling in human U87 cells assessed as up regulation of ADP ribosylation factor interacting protein 2 gene expression at cytotoxic IC50 measured after 48 hrs relative to control
[28] = Inhibition of RTK/PI3K/AKT/mTOR signaling in human U87 cells assessed as up regulation of abhydrolase domain containing 10 gene expression at cytotoxic IC50 measured after 48 hrs relative to control
[29] = Inhibition of RTK/PI3K/AKT/mTOR signaling in human U87 cells assessed as up regulation of TM9SF4 gene expression at cytotoxic IC50 measured after 48 hrs relative to control
[30] = Inhibition of RTK/PI3K/AKT/mTOR signaling in human U87 cells assessed as up regulation of RSL24D1 gene expression at cytotoxic IC50 measured after 48 hrs relative to control
[31] = Inhibition of RTK/PI3K/AKT/mTOR signaling in human U87 cells assessed as up regulation of IMPDH2 gene expression at cytotoxic IC50 measured after 48 hrs relative to control
[32] = Inhibition of RTK/PI3K/AKT/mTOR signaling in human U87 cells assessed as up regulation of RPL11 gene expression at cytotoxic IC50 measured after 48 hrs relative to control

CC(=O)C(=NNc1ccccc1C#N)C(C)=O
log2FC [1]: -1.53
log2FC [2]: -1.49
log2FC [3]: -1.12
log2FC [4]: -1.05
log2FC [5]: -0.321
log2FC [6]: -0.883
log2FC [7]: -0.838
log2FC [8]: -0.827
log2FC [9]: -0.809
log2FC [10]: -0.727
log2FC [11]: -0.654
log2FC [12]: -0.648
log2FC [13]: -0.619
log2FC [14]: -0.539
log2FC [15]: -0.424
log2FC [16]: -0.367
log2FC [17]: 1.96
log2FC [18]: 1.44
log2FC [19]: 1.19
log2FC [20]: 1.15
log2FC [21]: 1.05
log2FC [22]: 1.05
log2FC [23]: 1
log2FC [24]: 0.981
log2FC [25]: 0.891
log2FC [26]: 0.794
log2FC [27]: 0.779
log2FC [28]: 0.768
log2FC [29]: 0.451
log2FC [30]: 0.393
log2FC [31]: 0.37
log2FC [32]: 0.326
